## Percent effect of library compounds

Amino acid sequences for entries named in this document (tags omitted). Residues count along the entry.
UniProt P9WFT3, whole entry: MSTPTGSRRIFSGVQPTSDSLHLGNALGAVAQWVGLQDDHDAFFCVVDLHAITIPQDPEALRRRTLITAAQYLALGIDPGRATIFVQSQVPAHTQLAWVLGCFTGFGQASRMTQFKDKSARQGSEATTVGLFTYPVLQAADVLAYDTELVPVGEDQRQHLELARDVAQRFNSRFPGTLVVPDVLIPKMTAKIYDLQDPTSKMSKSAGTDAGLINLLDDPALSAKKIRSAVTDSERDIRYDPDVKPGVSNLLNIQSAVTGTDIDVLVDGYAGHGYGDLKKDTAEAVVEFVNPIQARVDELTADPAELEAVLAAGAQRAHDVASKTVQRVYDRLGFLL
UniProt P9WNZ1, whole entry: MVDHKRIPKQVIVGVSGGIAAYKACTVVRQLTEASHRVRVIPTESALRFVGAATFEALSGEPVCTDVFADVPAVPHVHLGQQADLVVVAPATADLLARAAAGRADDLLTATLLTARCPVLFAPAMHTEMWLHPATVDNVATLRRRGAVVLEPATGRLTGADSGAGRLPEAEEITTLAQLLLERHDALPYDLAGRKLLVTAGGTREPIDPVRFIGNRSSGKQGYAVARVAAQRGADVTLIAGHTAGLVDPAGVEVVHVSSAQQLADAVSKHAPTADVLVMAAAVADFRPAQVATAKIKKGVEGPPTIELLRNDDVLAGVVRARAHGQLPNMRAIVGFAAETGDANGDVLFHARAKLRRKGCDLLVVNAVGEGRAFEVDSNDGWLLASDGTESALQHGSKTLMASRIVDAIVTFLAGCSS
UniProt A4I591, 1-473: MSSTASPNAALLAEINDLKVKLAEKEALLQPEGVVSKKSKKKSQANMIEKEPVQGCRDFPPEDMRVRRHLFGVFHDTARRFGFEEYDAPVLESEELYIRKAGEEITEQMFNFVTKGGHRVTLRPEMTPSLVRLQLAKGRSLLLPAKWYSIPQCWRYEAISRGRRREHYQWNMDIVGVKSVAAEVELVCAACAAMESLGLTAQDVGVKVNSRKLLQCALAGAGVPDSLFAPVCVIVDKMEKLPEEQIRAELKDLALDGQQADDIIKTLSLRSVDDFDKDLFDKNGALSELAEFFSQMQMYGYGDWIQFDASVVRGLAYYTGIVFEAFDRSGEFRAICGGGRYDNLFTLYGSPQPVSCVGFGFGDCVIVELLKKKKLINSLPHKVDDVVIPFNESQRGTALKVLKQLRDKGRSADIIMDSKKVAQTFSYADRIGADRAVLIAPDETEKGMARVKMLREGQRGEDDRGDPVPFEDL
UniProt I6X8D2, whole entry: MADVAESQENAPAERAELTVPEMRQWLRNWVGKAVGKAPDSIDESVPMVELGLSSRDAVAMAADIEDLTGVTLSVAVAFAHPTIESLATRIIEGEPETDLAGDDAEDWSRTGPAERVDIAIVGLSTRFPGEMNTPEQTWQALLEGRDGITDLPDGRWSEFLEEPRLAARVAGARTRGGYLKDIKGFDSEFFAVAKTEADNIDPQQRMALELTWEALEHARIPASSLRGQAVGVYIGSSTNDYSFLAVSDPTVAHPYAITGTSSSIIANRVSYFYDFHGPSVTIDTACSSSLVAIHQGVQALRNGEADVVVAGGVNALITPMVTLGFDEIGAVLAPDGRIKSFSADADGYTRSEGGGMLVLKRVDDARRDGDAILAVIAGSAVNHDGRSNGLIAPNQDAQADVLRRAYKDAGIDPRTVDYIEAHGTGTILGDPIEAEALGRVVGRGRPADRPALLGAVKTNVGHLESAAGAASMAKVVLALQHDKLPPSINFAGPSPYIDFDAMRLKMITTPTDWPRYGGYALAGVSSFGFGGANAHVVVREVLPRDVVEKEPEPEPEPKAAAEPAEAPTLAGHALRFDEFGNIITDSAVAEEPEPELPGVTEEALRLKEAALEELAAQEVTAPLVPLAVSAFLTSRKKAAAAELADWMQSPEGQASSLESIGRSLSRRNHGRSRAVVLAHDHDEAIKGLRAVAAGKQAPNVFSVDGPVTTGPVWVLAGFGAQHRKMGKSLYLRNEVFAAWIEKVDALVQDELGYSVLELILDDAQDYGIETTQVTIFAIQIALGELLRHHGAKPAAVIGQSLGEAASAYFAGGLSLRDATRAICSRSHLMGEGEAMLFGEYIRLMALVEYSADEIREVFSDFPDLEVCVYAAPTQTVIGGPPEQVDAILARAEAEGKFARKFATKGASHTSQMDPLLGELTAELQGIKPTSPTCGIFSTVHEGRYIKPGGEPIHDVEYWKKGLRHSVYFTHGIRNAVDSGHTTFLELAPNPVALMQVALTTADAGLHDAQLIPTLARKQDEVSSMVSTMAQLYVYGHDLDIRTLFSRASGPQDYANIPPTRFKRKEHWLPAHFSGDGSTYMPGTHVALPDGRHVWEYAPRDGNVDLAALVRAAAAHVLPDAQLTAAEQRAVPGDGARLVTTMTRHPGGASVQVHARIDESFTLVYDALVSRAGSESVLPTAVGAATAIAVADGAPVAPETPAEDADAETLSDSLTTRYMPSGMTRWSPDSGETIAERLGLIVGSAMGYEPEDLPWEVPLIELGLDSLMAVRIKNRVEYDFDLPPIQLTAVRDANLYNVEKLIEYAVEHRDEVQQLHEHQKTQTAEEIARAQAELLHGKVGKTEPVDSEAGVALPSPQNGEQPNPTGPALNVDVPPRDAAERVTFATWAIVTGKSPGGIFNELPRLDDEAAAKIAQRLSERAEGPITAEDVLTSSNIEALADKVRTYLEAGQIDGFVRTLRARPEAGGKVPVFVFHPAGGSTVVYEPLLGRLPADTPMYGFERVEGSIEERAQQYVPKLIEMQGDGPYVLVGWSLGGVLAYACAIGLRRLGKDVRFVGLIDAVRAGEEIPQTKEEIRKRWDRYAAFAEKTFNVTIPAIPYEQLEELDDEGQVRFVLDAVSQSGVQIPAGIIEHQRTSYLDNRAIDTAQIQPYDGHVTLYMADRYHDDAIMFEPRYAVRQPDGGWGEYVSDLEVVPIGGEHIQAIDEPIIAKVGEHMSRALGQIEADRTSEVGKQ

Data taken from ChEMBL document CHEMBL3988442, “University of Dundee, Small-Polar-MMV Screening Library” (2021).

MtTrpRS: 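Tryptophan-tRNA ligase, Mycobacterium tuberculosis (UniProt P9WFT3). Enzyme assay of tryptophanyl-tRNA synthetase; the read-out is not stated. Compounds at 10 µM. Higher most likely means stronger inhibition; the record gives no direction and few retests gave an IC50. Of about 65,000 compounds tested this way, about 64 (0.098%) reached 50% or more in at least one test.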
CoaBC: 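Coenzyme A biosynthesis protein CoaBC, Mycobacterium tuberculosis (UniProt P9WNZ1). Enzyme assay of CoaBC with a phosphate dye (Biomol Green) read at 650 nm. Concentration: 30 µM. Higher reads as stronger inhibition, judged from the few compounds that gave an IC50. Most strong results did not repeat in a second test. About 67,000 compounds were tested under these conditions; 0.06% (about 40) showed 50% or more at least once.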
LiHisRS: 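Histidine-tRNA ligase, Leishmania infantum (UniProt A4I591). Enzyme assay of histidyl-tRNA synthetase; the read-out is not stated. Tested at 30 µM. Direction is inferred from retests: higher values go with stronger inhibition. The assay is labelled LdHisRS but filed under L. infantum. Of about 69,000 compounds tested this way, about 410 (0.6%) reached 50% or more in at least one test.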
Pks13 thioesterase: 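Polyketide synthase Pks13, Mycobacterium tuberculosis (UniProt I6X8D2). Enzyme assay of the thioesterase domain of polyketide synthase 13; the read-out is not stated. Compounds at 30 µM. Higher reads as stronger inhibition (inferred from which compounds were picked for retests). Size under these conditions: about 67,000 compounds, about 300 of them at 50% or above in at least one test.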

Results are given as percent effect. The controls that fix the scale are not given in the record; negative values are as filed. This is an unselected part of the compounds tested.

* CN(C)CCOc1ccc(CNC(=O)c2cccc3[nH]ncc23)cc1 | MtTrpRS: 17.5%; CoaBC: 6.746%; LiHisRS: 27.78%
* Cc1ccnc(NC(=O)C2CCN(CCCn3ccnc3)CC2)c1 | MtTrpRS: -0.3502%; CoaBC: 1.263%; LiHisRS: 13.16%; Pks13 thioesterase: -46.02%
* O=C(CN1CCOC(CNc2cccnn2)C1)N1CCCCC1 (stereo not drawn) | MtTrpRS: -6.671%; CoaBC: 3.584%; LiHisRS: 25%; Pks13 thioesterase: -6.453%
* CCn1nnc2c1C(COCCN(C)C)CN(S(=O)(=O)CC)C2 (stereo not drawn) | MtTrpRS: 4.44%; CoaBC: -0.2114%; LiHisRS: 19.3%; Pks13 thioesterase: -18.31%
* CC(C)CCN1CC2(CCN(C(=O)C3(C)CCCCO3)CC2)OC1=O (stereo not drawn) | MtTrpRS: 3.59%; CoaBC: -5.16%; LiHisRS: 15.05%; Pks13 thioesterase: 2.38%
* O=C1OCCN1CC(=O)N1C[C@H]2CC[C@@H]1CN(C(=O)c1ccccn1)C2 | MtTrpRS: 2.351%; CoaBC: 8.423%; LiHisRS: 5.714%; Pks13 thioesterase: -14.59%
* COc1ccccc1CN(Cc1nc2c(cnn2C)c(=O)[nH]1)C1CC1 | MtTrpRS: 9.855%; CoaBC: 6.09%; LiHisRS: 13.16%; Pks13 thioesterase: -1.444%
* O=C1N(Cc2cccc(F)c2)CCC12CCCN(c1ncc(F)cn1)C2 (stereo not drawn) | CoaBC: 0%; LiHisRS: 7.547%; Pks13 thioesterase: 16.28%
* CCS(=O)(=O)N1CCC2(CCN(Cc3cccc(OC)c3)CC2)CC1 | MtTrpRS: -4.931%; CoaBC: 2.545%; LiHisRS: 13.59%; Pks13 thioesterase: -20.76%
* COCCNC(=O)Cn1cc(OCc2ccc(F)cc2)c(=O)cc1CO | MtTrpRS: 1.731%; CoaBC: 1.533%; LiHisRS: 15.58%; Pks13 thioesterase: -16.06%
* CCOC(=O)[C@H]1[C@@H](O)C(=O)N(C)C12CCN(C(=O)CC(C)(C)C)CC2 | CoaBC: 2.331%; LiHisRS: 10.31%; Pks13 thioesterase: 17.76%
* Cc1cc(S(C)(=O)=O)c(C)c(S(=O)(=O)NCC2CCCO2)c1 (stereo not drawn) | MtTrpRS: -6.085%; CoaBC: -2.564%; LiHisRS: 9.589%; Pks13 thioesterase: 17.38%
* CC(OCC1CC1)C(=O)NCc1cccc(CN2CCCC2=O)c1 (stereo not drawn) | MtTrpRS: -0.2865%; CoaBC: 0.3984%; LiHisRS: 35.62%; Pks13 thioesterase: 7.419%
* O=C(NC1CCCCC1)C1CCCN(C(=O)Nc2ccccn2)C1 (stereo not drawn) | MtTrpRS: -1.257%; CoaBC: 10.33%; LiHisRS: 8%; Pks13 thioesterase: -36.38%
* COCC(=O)N1CCC2(CC1)CN(CC1CC1)c1ccc(F)cc12 | CoaBC: 4.332%; LiHisRS: 23.76%
* NC(=O)NC(=O)CN1CCN(c2nccs2)CC1 | MtTrpRS: -1.687%; CoaBC: 2.5%; LiHisRS: 10.71%; Pks13 thioesterase: -18.79%